From publication PMC3471852 come the findings set out here.

Changes are numbered by the printed parent chain. No constants are given. Whether binding was seen depends on the method and setting. Binding seen in cells or lysates may run through a third protein. Some binding calls cover weakened binding; strength is not graded here. Tags and fused reporters may be left off the sequences shown.

Holding throughout (assay): co-IP; HEK293 cells co-expressing HA-tagged receptor and Flag-β-arrestin-2, buffer or C3a (100 nM, 37°C, 5 min), chemical cross-linking with disuccinimidyl suberate (0.1 mM, room temperature, 30 min), lysates on anti-HA agarose overnight at 4°C, blot with anti-Flag antibody, densitometry
Experiment [1] concerns the target T1, HA-tagged C3aR mutant MT1 (Ser475/479, Thr480/481 to Ala) (human) (UniProt Q16581).
T1 sequence: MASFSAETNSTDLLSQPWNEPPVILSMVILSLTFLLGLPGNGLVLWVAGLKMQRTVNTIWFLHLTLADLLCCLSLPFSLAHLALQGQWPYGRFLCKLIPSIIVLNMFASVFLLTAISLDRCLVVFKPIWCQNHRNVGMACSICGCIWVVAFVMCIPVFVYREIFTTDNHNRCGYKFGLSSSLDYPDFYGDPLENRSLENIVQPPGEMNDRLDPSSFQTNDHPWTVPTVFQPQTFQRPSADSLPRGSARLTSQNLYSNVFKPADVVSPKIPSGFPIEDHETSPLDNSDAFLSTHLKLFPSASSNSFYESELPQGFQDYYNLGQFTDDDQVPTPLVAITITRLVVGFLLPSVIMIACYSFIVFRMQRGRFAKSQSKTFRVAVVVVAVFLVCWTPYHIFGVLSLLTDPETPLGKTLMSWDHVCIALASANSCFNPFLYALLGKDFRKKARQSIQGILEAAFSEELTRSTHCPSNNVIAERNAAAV

Experiment [2] deals with T2, HA-tagged wild-type C3a receptor (human) (UniProt Q16581).
T2 sequence: T1 sequence with A475S, A479S, A480T, A481T

The target in experiment [3] is T3, HA-tagged C3aR mutant MT7 (Ser459 plus the residues of MT1 and MT2 to Ala) (human) (UniProt Q16581).
T3 sequence: T1 sequence with S459A, T463A, S465A, T466A, S470A

In the case of “Flag-β-arrestin-2 (from UniProt P32121 1-409)”, the binding result in experiment [1] is “binds”; in experiment [2], “binds”; in experiment [3], “no binding”.
